Results taken from the supplement of paper PMC6078165.
± gives the standard deviation of the averaged measurements. Values are relative to the signal before dosing, not to a vehicle control; the signal also falls without drug.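 Fibroblast labels name human fibroblasts: mostly primary ones from tissues such as uterus (C12385, HUF), lung (H6013), bone (Hs27A), adrenal (HADF) and skin (WS1), plus mammary HMF and breast cancer-associated Hs343T. The cancer cells are basal-like or mesenchymal-like triple-negative breast cancer lines. The paper calls a changed response a hit when it shifts by more than 3x the replicate standard deviation. The tissue of the other fibroblasts is not given here.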

System: BT20
Experiment: relative JC-1 red fluorescence (viability) vs pre-drug, coculture with fibroblast (fraction); higher = more viable cancer cells
Experimental: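 JC-1 labelled TNBC cells cocultured 1:1 (1,500 cells each) with CellTrace Violet stained primary or stromal fibroblasts in 384-well plates in FluoroBrite medium, treated with one of 42 anticancer drugs at 0.1, 1, 10 or 100 uM. JC-1 red fluorescence (mitochondrial integrity in cancer cells only) was read by plate reader every 8 h for 72 h. Values are normalised to each well's pre-drug value. The stock of one drug was tenfold lower, so its dose labels may be too high.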

CC(C)C[C@H](NC(=O)[C@@H](COC(C)(C)C)NC(=O)[C@H](Cc1ccc(O)cc1)NC(=O)[C@H](CO)NC(=O)[C@H](Cc1c[nH]c2ccccc12)NC(=O)[C@H](Cc1cnc[nH]1)NC(=O)[C@@H]1CCC(=O)N1)C(=O)N[C@@H](CCCNC(=N)N)C(=O)N1CCC[C@H]1C(=O)NNC(N)=O [Goserelin]
relative JC-1 red fluorescence
Details | 8 h | 16 h | 24 h | 32 h | 40 h | 48 h | 56 h | 64 h | 72 h
0.1 µM, coculture fibroblast: C12385 | 0.8992 ± 0.0083 | 0.783 ± 0.0043 | 0.72196 ± 0.0002 | 0.6581 ± 0.0014 | 0.587 ± 0.0079 | 0.5565 ± 0.0053 | 0.53215 ± 9.5e-05 | 0.51345 ± 0.00042 | 0.496 ± 0.0084
0.1 µM, coculture fibroblast: H6013 | 0.926 ± 0.043 | 0.9155 ± 0.0025 | 0.926 ± 0.048 | 0.89 ± 0.013 | 0.873 ± 0.015 | 0.8686 ± 0.0039 | 0.8926 ± 0.0036 | 0.8818 ± 0.0036 | 0.871 ± 0.011
0.1 µM, coculture fibroblast: H6019 | 0.857 ± 0.029 | 0.799 ± 0.072 | 0.782 ± 0.097 | 0.742 ± 0.13 | 0.707 ± 0.15 | 0.703 ± 0.16 | 0.683 ± 0.18 | 0.676 ± 0.19 | 0.662 ± 0.21
0.1 µM, coculture fibroblast: H6076 | 0.965 ± 0.042 | 0.893 ± 0.026 | 0.7981 ± 0.0022 | 0.754 ± 0.0095 | 0.718 ± 0.027 | 0.691 ± 0.028 | 0.679 ± 0.02 | 0.677 ± 0.024 | 0.662 ± 0.015
0.1 µM, coculture fibroblast: H6231 | 0.791 ± 0.094 | 0.898 ± 0.044 | 0.794 ± 0.052 | 0.728 ± 0.035 | 0.68 ± 0.015 | 0.6285 ± 0.0047 | 0.5861 ± 0.0049 | 0.567 ± 0.011 | 0.534 ± 0.022
0.1 µM, coculture fibroblast: HADF | 0.923 ± 0.058 | 0.883 ± 0.031 | 0.831 ± 0.045 | 0.785 ± 0.041 | 0.745 ± 0.051 | 0.694 ± 0.051 | 0.674 ± 0.06 | 0.663 ± 0.05 | 0.63 ± 0.054
0.1 µM, coculture fibroblast: HCFa | 0.88 ± 0.016 | 0.805 ± 0.012 | 0.758 ± 0.032 | 0.69 ± 0.041 | 0.632 ± 0.043 | 0.597 ± 0.045 | 0.56 ± 0.046 | 0.536 ± 0.05 | 0.498 ± 0.042
0.1 µM, coculture fibroblast: HCPF | 0.894 ± 0.066 | 0.896 ± 0.027 | 0.8258 ± 0.0027 | 0.777 ± 0.016 | 0.735 ± 0.012 | 0.692 ± 0.03 | 0.641 ± 0.04 | 0.625 ± 0.043 | 0.582 ± 0.042
0.1 µM, coculture fibroblast: HHSteC | 0.9068 ± 0.0045 | 0.836 ± 0.027 | 0.809 ± 0.031 | 0.724 ± 0.03 | 0.672 ± 0.04 | 0.634 ± 0.036 | 0.607 ± 0.042 | 0.578 ± 0.045 | 0.548 ± 0.044
0.1 µM, coculture fibroblast: HMF | 0.903 ± 0.043 | 0.835 ± 0.033 | 0.759 ± 0.022 | 0.706 ± 0.017 | 0.667 ± 0.0065 | 0.6312 ± 0.0019 | 0.607 ± 0.0068 | 0.586 ± 0.014 | 0.573 ± 0.016
0.1 µM, coculture fibroblast: HPFa | 0.973 ± 0.0081 | 0.887 ± 0.048 | 0.93 ± 0.065 | 0.857 ± 0.069 | 0.84 ± 0.094 | 0.803 ± 0.1 | 0.776 ± 0.11 | 0.745 ± 0.12 | 0.686 ± 0.12
0.1 µM, coculture fibroblast: HUF | 0.939 ± 0.041 | 0.845 ± 0.057 | 0.854 ± 0.085 | 0.785 ± 0.11 | 0.724 ± 0.11 | 0.685 ± 0.11 | 0.651 ± 0.097 | 0.639 ± 0.096 | 0.612 ± 0.089
0.1 µM, coculture fibroblast: Hs5 | 0.935 ± 0.04 | 0.878 ± 0.044 | 0.783 ± 0.023 | 0.736 ± 0.017 | 0.67 ± 0.018 | 0.629 ± 0.013 | 0.587 ± 0.013 | 0.548 ± 0.011 | 0.5134 ± 0.0029
0.1 µM, coculture fibroblast: Hs27A | 0.795 ± 0.1 | 0.966 ± 0.034 | 0.902 ± 0.062 | 0.886 ± 0.065 | 0.835 ± 0.064 | 0.809 ± 0.065 | 0.79 ± 0.059 | 0.77 ± 0.062 | 0.726 ± 0.065
0.1 µM, coculture fibroblast: Hs343T | 0.917 ± 0.074 | 0.893 ± 0.0031 | 0.7932 ± 0.0063 | 0.739 ± 0.015 | 0.688 ± 0.029 | 0.642 ± 0.042 | 0.599 ± 0.033 | 0.584 ± 0.026 | 0.56 ± 0.027
0.1 µM, coculture fibroblast: WS1 | 0.873 ± 0.02 | 0.7754 ± 0.0065 | 0.719 ± 0.028 | 0.634 ± 0.04 | 0.562 ± 0.05 | 0.528 ± 0.056 | 0.502 ± 0.07 | 0.475 ± 0.083 | 0.458 ± 0.086
1 µM, coculture fibroblast: C12385 | 0.904 ± 0.028 | 0.856 ± 0.053 | 0.753 ± 0.1 | 0.682 ± 0.11 | 0.629 ± 0.12 | 0.598 ± 0.12 | 0.561 ± 0.12 | 0.532 ± 0.12 | 0.514 ± 0.13
1 µM, coculture fibroblast: H6013 | 0.9623 ± 0.0094 | 0.872 ± 0.04 | 0.852 ± 0.011 | 0.806 ± 0.025 | 0.768 ± 0.027 | 0.764 ± 0.012 | 0.7844 ± 0.0044 | 0.773 ± 0.018 | 0.768 ± 0.034
1 µM, coculture fibroblast: H6019 | 0.892 ± 0.021 | 0.856 ± 0.067 | 0.828 ± 0.1 | 0.801 ± 0.16 | 0.785 ± 0.21 | 0.776 ± 0.23 | 0.752 ± 0.23 | 0.733 ± 0.25 | 0.72 ± 0.25
1 µM, coculture fibroblast: H6076 | 0.888 ± 0.14 | 0.87346 ± 0.00064 | 0.836 ± 0.01 | 0.815 ± 0.013 | 0.787 ± 0.021 | 0.777 ± 0.016 | 0.774 ± 0.026 | 0.78 ± 0.032 | 0.77 ± 0.03
1 µM, coculture fibroblast: H6231 | 0.855 ± 0.19 | 0.908 ± 0.018 | 0.781 ± 0.018 | 0.711 ± 0.024 | 0.664 ± 0.025 | 0.622 ± 0.032 | 0.591 ± 0.033 | 0.568 ± 0.042 | 0.541 ± 0.045
1 µM, coculture fibroblast: HADF | 0.923 ± 0.074 | 0.93 ± 0.014 | 0.854 ± 0.1 | 0.863 ± 0.17 | 0.843 ± 0.2 | 0.808 ± 0.22 | 0.798 ± 0.23 | 0.784 ± 0.23 | 0.753 ± 0.23
1 µM, coculture fibroblast: HCFa | 0.9436 ± 0.0049 | 0.844 ± 0.015 | 0.806 ± 0.023 | 0.748 ± 0.026 | 0.688 ± 0.049 | 0.649 ± 0.052 | 0.621 ± 0.07 | 0.591 ± 0.081 | 0.55 ± 0.084
1 µM, coculture fibroblast: HCPF | 0.907 ± 0.074 | 0.86 ± 0.037 | 0.806 ± 0.014 | 0.7721 ± 0.0066 | 0.735 ± 0.012 | 0.684 ± 0.034 | 0.653 ± 0.04 | 0.636 ± 0.053 | 0.604 ± 0.054
1 µM, coculture fibroblast: HHSteC | 0.916 ± 0.02 | 0.833 ± 0.046 | 0.83 ± 0.066 | 0.759 ± 0.086 | 0.714 ± 0.1 | 0.687 ± 0.12 | 0.667 ± 0.13 | 0.649 ± 0.14 | 0.62 ± 0.14
1 µM, coculture fibroblast: HMF | 0.897 ± 0.11 | 0.8601 ± 0.0056 | 0.741 ± 0.035 | 0.7 ± 0.049 | 0.653 ± 0.056 | 0.603 ± 0.05 | 0.559 ± 0.059 | 0.522 ± 0.06 | 0.5 ± 0.071
1 µM, coculture fibroblast: HPFa | 0.937 ± 0.017 | 0.868 ± 0.035 | 0.878 ± 0.038 | 0.784 ± 0.042 | 0.765 ± 0.032 | 0.711 ± 0.032 | 0.689 ± 0.0097 | 0.6579 ± 0.0043 | 0.60686 ± 0.00016
1 µM, coculture fibroblast: HUF | 0.904 ± 0.0034 | 0.827 ± 0.015 | 0.7823 ± 0.0019 | 0.7003 ± 0.0034 | 0.6443 ± 0.0014 | 0.61353 ± 0.00052 | 0.597 ± 0.011 | 0.5792 ± 0.0037 | 0.562 ± 0.0036
1 µM, coculture fibroblast: Hs5 | 0.969 ± 0.017 | 0.912 ± 0.02 | 0.844 ± 0.018 | 0.812 ± 0.022 | 0.774 ± 0.021 | 0.751 ± 0.014 | 0.717 ± 0.012 | 0.689 ± 0.012 | 0.6551 ± 0.0048
1 µM, coculture fibroblast: Hs27A | 0.877 ± 0.078 | 0.909 ± 0.068 | 0.9 ± 0.019 | 0.895 ± 0.051 | 0.86 ± 0.05 | 0.848 ± 0.054 | 0.83 ± 0.062 | 0.807 ± 0.063 | 0.758 ± 0.071
1 µM, coculture fibroblast: Hs343T | 0.736 ± 0.035 | 0.888 ± 0.012 | 0.807 ± 0.045 | 0.762 ± 0.051 | 0.709 ± 0.075 | 0.665 ± 0.089 | 0.614 ± 0.11 | 0.591 ± 0.12 | 0.552 ± 0.14
1 µM, coculture fibroblast: WS1 | 0.887 ± 0.012 | 0.827 ± 0.05 | 0.751 ± 0.031 | 0.675 ± 0.03 | 0.617 ± 0.028 | 0.585 ± 0.031 | 0.555 ± 0.025 | 0.529 ± 0.019 | 0.522 ± 0.024
